The list shows a part of the results. The main result of the screen is listed elsewhere. These columns were measured beside it and carry no call. Most of these compounds were active or inconclusive in the main read-out, so they are no random draw. Potencies come from curve fits of mixed quality, noted in brackets.
Test: qHTS Assay for Lipid Storage Modulators in Drosophila S3 Cells;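 on cell number change: cells counted by Cell Tracker Red CMTPX staining in the red channel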
Conditions: BODIPY lipid droplet fluorescence, 18-24 h; for cell number change: measured here: cell count max response, cells fed with added oleic acid
Outline: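 Laser-scanning cytometry quantifies lipid droplet accumulation (500–530 nm total intensity; droplet/cell object ratio) in oleic acid-fed (400 uM added) Drosophila S3 cells treated with a concentration series. 20 uM Triacsin C defined 100% inhibition.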

[1] = measured here: cell number channel AC50, cells fed with added oleic acid
[2] = measured here: lipid fluorescence (Fed channel) AC50, cells fed with added oleic acid

Row | SMILES | cell number change | AC50 [1] | AC50 [2]
1 | CCc1ccc(N2CC(C(=O)OCC(=O)Nc3cc(C)on3)CC2=O)cc1 (stereo not given) | -24.1% | 0.0461 µM [falling, full curve, poor fit] | 0.164 µM [falling, full curve]
2 | Cc1ccn2cc(C34CC5CC(CC(C5)C3)C4)nc2c1 |  |  | 0.13 µM [rising, full curve, poor fit]
3 | CC1CCN(C(=O)CSc2nc(C(C)C)nc3c2c(=O)n(C)c(=O)n3C)CC1 | -51.8% | 1.16 µM [falling, full curve] | 0.366 µM [falling, full curve]
4 | c1coc(CNc2nc3ccccc3n2CCN2CCOCC2)c1 | 14.7% |  | 7.31 µM [rising, partial curve]
5 | CCOc1ccccc1-n1c(C)cc(C=O)c1C | 96.6% | 18.4 µM [rising, single point] | 
6 | CC1NC(=S)N(C2CCCCC2)C1=O (stereo not given) | -36.4% | 1.16 µM [falling, full curve] | 5.8 µM [falling, full curve]
7 | Cc1cccc(C(=O)NCc2ccc(S(N)(=O)=O)cc2)c1[N+](=O)[O-] | 12.7% |  | 
8 | COCCOC(=O)C1=C(C)NC(=O)NC1c1c(Cl)nc2c(C)cccn2c1=O (stereo not given) | 6.32% |  | 1.84 µM [rising, full curve, poor fit]
9 | CC1=C(C)C(=O)N(C(C)CCc2ccccc2)C1=O (stereo not given) | -0.275% |  | 29.1 µM [rising, single point]
10 | CN(CC(=O)Nc1ccc(N2CCOCC2)cc1)C(=O)C1CCCC1 | -34.9% | 25.9 µM [falling, single point] | 25.9 µM [falling, single point]
11 | CCCc1nc2ccccc2[nH]1 | -6.84% |  | 
12 | Cc1ccc(NC(=O)c2ccc(CSc3ccccn3)cc2)c(O)c1 | -2.38% | 3.26 µM [falling, partial curve] | 3.66 µM [falling, partial curve, poor fit]
13 | O=C(O)c1cc(S(=O)(=O)N2CCN(c3ccccn3)CC2)ccc1Cl | -45.3% |  | 
14 | O=C1NCCN1CCNS(=O)(=O)c1ccc(F)cc1 | -17.2% | 0.517 µM [falling, partial curve] | 
15 | CC(=O)NC(Cc1ccccc1)c1ccc2c(c1)OCCCO2 (stereo not given) | 138% | 29.1 µM [rising, single point] | 25.9 µM [rising, single point]
16 | Cc1nn(-c2ccccc2)c(C)c1-c1nnc(C(F)(F)F)o1 | 35.2% | 13 µM [rising, partial curve] | 29.1 µM [rising, single point]
17 | N#Cc1c(N2CCCC2)nsc1-c1ccccc1 | 14.8% |  | 3.66 µM [rising, full curve]
18 | COC(=O)c1ccc(NC(=O)c2cccc(OC)c2)cc1 | -9.08% |  | 
19 | CC[C@H](C)[C@@H](CNC)NC[C@@H](Cc1ccc(O)cc1)NCC(C)(C)C |  |  | 29.1 µM [rising, single point]
20 | C=CCN1C(=O)c2ccc(C(=O)OCC(=O)N(CC)C3CCS(=O)(=O)C3)cc2C1=O (stereo not given) | 14.5% |  | 
21 | CCN(CC(=O)Nc1c(F)cccc1F)C(=O)c1ccc(-n2cncn2)c([N+](=O)[O-])c1 | 17.6% |  | 5.8 µM [rising, partial curve]
22 | COc1ccc(C(=O)NCCSCc2ccc(Cl)cc2)cc1OC | -7.87% |  | 20.6 µM [falling, single point]
23 | Cc1ccc(/C(N)=N/OC(=O)c2ccc3c(c2)OCO3)cc1 | -15% |  | 8.2 µM [rising, partial curve, poor fit]
24 | CCOC(=O)c1ccc(NC(=O)NC2CC3CCC(C2)N3Cc2nnnn2C(C)(C)C)cc1 (stereo not given) | 3.12% |  | 
25 | COc1ccccc1C(=O)CN1C(=O)NC2(CCc3ccccc32)C1=O (stereo not given) | -0.64% |  | 29.1 µM [rising, partial curve, poor fit]
26 | O=C(Nc1scc(-c2ccccc2)c1C(=O)O)c1ccccc1Cl | 36.1% | 6.51 µM [rising, full curve, poor fit] | 29.1 µM [falling, single point]
27 | CC(=O)N1c2ccccc2Sc2ccccc21 | 16.6% |  | 29.1 µM [rising, single point]
28 | COc1cc(CCCN2CCNC[C@@H]2Cc2ccccc2)cc(OC)c1OC | -45.6% | 29.1 µM [falling, single point] | 0.651 µM [rising, full curve, poor fit]
29 | COCCNC(=O)C(c1ccc(C)cc1)N(C(=O)CCC(=O)Nc1ccccn1)c1ccc(C)cc1 (stereo not given) | 6.96% |  | 
30 | CCC1Sc2ccc(S(=O)(=O)Nc3ccc(OC)c(OC)c3)cc2NC1=O (stereo not given) | 18.7% |  | 6.51 µM [falling, single point]

Structures above with an aryl thioether with sulfur outside any ring, in the order listed:
Row | SMILES | cell number change | AC50 [1] | AC50 [2]
3 | CC1CCN(C(=O)CSc2nc(C(C)C)nc3c2c(=O)n(C)c(=O)n3C)CC1 | -51.8% | 1.16 µM [falling, full curve] | 0.366 µM [falling, full curve]
12 | Cc1ccc(NC(=O)c2ccc(CSc3ccccn3)cc2)c(O)c1 | -2.38% | 3.26 µM [falling, partial curve] | 3.66 µM [falling, partial curve, poor fit]

From PubChem BioAssay AID2685 (National Center for Advancing Translational Sciences (NCATS), 2010)
